In PubChem BioAssay AID493014 (National Center for Advancing Translational Sciences (NCATS), 2011):
Some of the results follow. Shown are side measurements of this screen, not its main read-out; they come without a call. The list favours compounds with an active or inconclusive main result. Words in brackets tell the shape of the fitted curve; partial curves, single points and poor fits give uncertain potencies.

Experiment: qHTS Assay to Find Inhibitors of Chronic Active B-Cell Receptor Signaling
Details: ABC-DLBCL IkBa-CBG/CBR reporter, luminescence ratio (green luciferase fused to IkBa over red control in TMD8 lymphoma cells), 4 h
How it was run: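 Doxycycline induced both beetle luciferases in TMD8 lymphoma cells; IKK-driven degradation limits the IkappaBalpha-fused green signal, while red luminescence normalises for cell number and nonspecific effects. Compounds tested up to 46 uM, 4 hrs.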

[1] = measured here: CBR red luminescence, cell number
[2] = measured here: IkBa-CBG green luminescence

SMILES | AC50 [1] | AC50 [2]
O=[N+]([O-])c1cccc(-c2cnc3ccccc3n2)c1 | 6.31 µM [rising, partial curve] | 
O=C(NCCc1ccc(Cl)cc1)c1cnccn1 | 2.51 µM [rising, single point] | 
COc1ccc(/C=N\NC(=O)c2sc(N)nc2C)cc1OC | 11.2 µM [falling, partial curve, poor fit] | 
O=C(NC1CC1)C1C2C3C4CC5C3C5C4C12 (stereo not drawn) | 6.31 µM [rising, single point] | 
O=C(NCc1ccc(-c2nc3ccccc3s2)cc1)c1ccco1 | 23.1 µM [rising, single point] | 
COC(=O)c1ccc(CSc2nnc(Nc3ccccc3OC)s2)o1 | 15.8 µM [falling, single point] | 
Clc1ccc(CN2CCC(Cc3ccccc3)CC2)cc1 | 23.1 µM [rising, single point] | 
CCOc1ccc(N(C(=O)c2snc(C(N)=O)c2N)C(C)C(=O)NC2CCCCC2)cc1 (stereo not drawn) | 35.5 µM [falling, single point] | 
O=C(O)CN1C2=NCCCN2c2ccccc21 | 22.4 µM [rising, single point] | 
Cc1ccc(NC(=O)COc2ccc(N(C)C(=O)C(C)(C)C)cc2)cc1S(=O)(=O)N1CCCCC1 | 0.116 µM [falling, full curve, poor fit] | 
Cc1ccccc1Nc1nc(N)nc(-c2oc3ccccc3c2C)n1 | 0.224 µM [falling, full curve, poor fit] | 
Cc1oc2cc(O)ccc2c(=O)c1Oc1ccc(F)cc1 | 2.82 µM [rising, partial curve, poor fit] | 
CCOCC(=O)Nc1nc2ccc(S(C)(=O)=O)cc2s1 | 7.31 µM [rising, partial curve] | 
CSc1nc(-c2ccccc2)nc(NC(=O)C(C)C)c1C(C)=O | 1.78 µM [falling, full curve, poor fit] | 
COc1ccc2nc(-c3ccc(N)cc3)[nH]c2c1 | 13 µM [falling, partial curve] | 
Cc1cccc(NC(=O)Nc2ccc3c(c2)N(C)C(=O)CS3)n1 | 0.58 µM [rising, full curve, poor fit] | 
O=C(N/N=C/c1ccc2c(c1)OCO2)C1CC1 | 22.4 µM [falling, partial curve, poor fit] | 
CCCNC(=O)C(Cc1ccc(C(F)(F)P(=O)(OCC)OCC)cc1)NC(=O)c1ccc(C#N)cc1 (stereo not drawn) | 18.4 µM [rising, single point] | 
COc1ccc(/C=C\C(=O)Oc2cccc(/C=N/NC(=O)Cc3ccc(OC)c(OC)c3)c2)cc1 | 2.59 µM [rising, partial curve] | 
CC(=O)c1sc(NC(=O)c2cc(S(=O)(=O)N3CCOCC3)ccc2F)nc1C | 25.9 µM [falling, single point] | 
CCCCCCOc1ccc(/C=C/C(=O)N2CCOCC2)cc1OC | 2.51 µM [rising, partial curve, poor fit] | 

SMILES | AC50 [1] | AC50 [2]
COc1ccc(-c2cc(=O)oc3c(C)c(O)c(CN(C)C)cc23)cc1 | 1.41 µM [falling, full curve] | 
Cc1ccc(C(=O)O)cc1-c1ccc(C=C2C(=O)c3ccccc3C2=O)o1 | 11.2 µM [falling, partial curve, poor fit] | 
O=C(Nc1nccs1)C12CC3CC(C1)CC(C(=O)Nc1nccs1)(C3)C2 | 15.8 µM [falling, partial curve] | 
COc1cc(/C=C/C(=O)OCC(=O)Nc2ccccc2Sc2ccc(Cl)cc2)ccc1O | 29.1 µM [falling, single point] | 
O=[N+]([O-])c1cccc(CNc2ccc3c(c2)CCC3)c1 | 8.2 µM [rising, partial curve, poor fit] | 
CC(=O)N(C)c1nc(-c2ccc(Cl)cc2)cs1 | 2.24 µM [rising, partial curve, poor fit] | 
CCOC(=O)c1ccc(N2CCN(c3cccc(Cl)c3)CC2)c(NC(=O)Nc2ccc(OC)cc2OC)c1 | 1 µM [rising, partial curve, poor fit] | 
COc1ccc(/C=C/C(=O)Nc2c(C)nn(C)c2C)cc1COc1ccc(Cl)cc1Br | 2.31 µM [rising, partial curve] | 
N/C(=N\OC(=O)CSc1ccccc1)c1cccc([N+](=O)[O-])c1 | 25.9 µM [rising, partial curve] | 
CCOC(=O)c1c(NC(=S)Nc2ccccc2C)sc2c1CCC2 | 1.84 µM [rising, full curve] | 
O=C(NCCc1ccccc1)c1cc2sccc2n1Cc1ccccc1 | 12.6 µM [rising, single point] | 
O=C(CC(c1ccccc1)c1ccccc1)Nc1ncn[nH]1 | 0.206 µM [falling, full curve] | 
O=C(CCCc1ccccc1)Nc1cccc(C(=O)O)c1 | 0.316 µM [falling, full curve] | 
NC(=S)NNC(=O)c1cccc(Cl)c1 | 31.6 µM [rising, partial curve, poor fit] | 
COc1ccc(CCNC(=O)[C@H](C)N2C(=O)N3CCc4c([nH]c5ccccc45)[C@@]3(C)C2=O)cc1 | 25.1 µM [falling, partial curve, poor fit] | 
O=C(N/N=C(\c1ccccc1)c1cccnc1)c1cccc(F)c1 | 10 µM [rising, partial curve, poor fit] | 22.4 µM [falling, single point]
O=C(Nc1cc2c3c(c1)CC(=O)N3CCC2)c1ccc(Br)cc1 | 0.291 µM [rising, full curve] | 
Cc1ccc(Cl)cc1N1CCN(C(=S)NCc2ccco2)CC1 | 35.5 µM [falling, single point] | 35.5 µM [rising, partial curve, poor fit]
O=C(Nc1nnc(-c2ccco2)s1)c1ccccc1 | 3.16 µM [falling, partial curve, poor fit] | 
Cc1ccc(CNC(=O)Nc2ccc(OC(F)(F)F)cc2)n1C | 35.5 µM [rising, single point] | 
COC(=O)c1[nH]c2ccccc2c1NC(=O)CN1CCN(C/C=C/c2ccccc2)CC1 | 0.0891 µM [rising, full curve, poor fit] | 2.82 µM [falling, partial curve, poor fit]

SMILES | AC50 [1] | AC50 [2]
O=C(Cn1cc2c(n1)CCCCC2)NCc1cccs1 | 35.5 µM [falling, single point] | 
Cc1cc(C)cc(-n2c(SCC(=O)Nc3cccc(S(=O)(=O)NC4=NCCCCC4)c3)nc3ccccc3c2=O)c1 | 10.3 µM [falling, partial curve, poor fit] | 
Cn1c2ccccc2c(=O)n2c(=O)c3ccccc3cc12 | 15.8 µM [falling, partial curve] | 
O=C(Nc1ccn(C2CC(OC(=O)c3ccccc3)C(CO)O2)c(=O)n1)c1ccccc1 (stereo not drawn) | 12.6 µM [rising, partial curve, poor fit] | 
CC(=O)Cn1c2ccccc2n2nc(CCC(=O)O)c(=O)nc12 | 35.5 µM [rising, single point] | 
CSc1ccc(/C=C/C(=O)N2CCN(c3ccccn3)CC2)cc1 | 0.355 µM [falling, full curve] | 17.8 µM [falling, partial curve, poor fit]
Nc1ccc(-c2cc(-c3cccc(N)c3)nc(-c3ccccc3)n2)cc1 | 25.9 µM [falling, partial curve, poor fit] | 
CN(C)c1ccc(C2Nc3cccc4cccc(c34)N2)cc1 | 35.5 µM [falling, single point] | 
Cc1csc(N/N=C/c2ccccn2)n1 | 35.5 µM [falling, single point] | 35.5 µM [falling, partial curve, poor fit]
Nn1cnnc1N/N=C/c1ccc(Cl)cc1Cl | 35.5 µM [falling, single point] | 
O=C(c1ccccc1)c1ccc2cc(O)ccc2c1 | 0.112 µM [rising, full curve, poor fit] | 
COC(=O)c1cc(-c2c(C)nn(-c3ccccc3)c2C)n[nH]1 | 7.31 µM [falling, partial curve] | 
CCc1[nH]nc2c1C(Cc1ccccc1)C(C#N)=C(N)O2 (stereo not drawn) | 14.6 µM [rising, partial curve, poor fit] | 
COCCCNC(=O)CN(c1cc(C(F)(F)F)ccc1Cl)S(C)(=O)=O | 0.447 µM [rising, full curve, poor fit] | 
Cc1cc(C(=O)COC(=O)c2ccc(O)cc2)c(C)n1CC1COc2ccccc2O1 (stereo not drawn) | 23.1 µM [falling, single point] | 
COc1ccc(C(c2c(C)[nH][nH]c2=O)c2c(C)[nH][nH]c2=O)cc1Br | 15.8 µM [falling, single point] | 
CCOC(=O)c1c(CN2CCN(C)CC2)oc2ccc(O)cc12 | 20 µM [falling, single point] | 
Cc1ccc(S(=O)(=O)N2CCCCC2)cc1NC(=O)c1cncc(Br)c1 | 0.366 µM [rising, partial curve, poor fit] | 
COc1ccc(C)cc1S(=O)(=O)Nc1cc2c3c(c1)C(C)C(=O)N3CCC2 (stereo not drawn) | 7.31 µM [rising, single point] | 
O=C(COc1ccccc1Cl)N1CCN(c2ccc(F)cc2)CC1 | 18.4 µM [rising, single point] | 
O=S(=O)(c1ccccc1F)N1CCN(Cc2nc3ccccc3[nH]2)CC1 | 18.4 µM [rising, partial curve, poor fit] | 

Record cards, from the list above.
`CN(C)c1ccc(C2Nc3cccc4cccc(c34)N2)cc1` is listed with AC50 [1]: 35.5 µM [falling, single point]
`O=C(COc1ccccc1Cl)N1CCN(c2ccc(F)cc2)CC1` is listed with AC50 [1]: 18.4 µM [rising, single point]
`CSc1ccc(/C=C/C(=O)N2CCN(c3ccccn3)CC2)cc1` is listed with AC50 [1]: 0.355 µM [falling, full curve]; AC50 [2]: 17.8 µM [falling, partial curve, poor fit]
`Cc1cc(C(=O)COC(=O)c2ccc(O)cc2)c(C)n1CC1COc2ccccc2O1` (stereo not drawn) is listed with AC50 [1]: 23.1 µM [falling, single point]
